Reference: PMC9019904, “AD Informer Set: Chemical tools to facilitate Alzheimer's disease drug discovery” (Alzheimer's & Dementia : Translational Research & Clinical …, 2022)

Assays:
[1] = system: HMC3 (human microglia) cell line; experiment: pHrodo-myelin phagocytosis/cell viability high content imaging assay: viability (cell count, nuclear area, nuclear intensity); conditions: HMC3 cells, 10 uM compound, 48 hours treatment
Experimental: (§1) All AD Informer Set compounds were tested in two immortalized microglial cell lines, murine (BV2), and human (HMC3), in a high‐content imaging assay in duplicate by the Chu lab. Experimental details and all data can be found as supporting information files.
(§2) The role of microglia in AD has been well documented and was thus chosen as a cell type in which to profile the AD Informer Set.[43], [44], [45] As an example, neuroinflammation, as detected by the presence of activated complement proteins, interleukins, cytokines, and chemokines in microglia and astrocytes, is increased early in AD and is considered pathogenic due to its chronic nature.[33], [34] Cytotoxic effects can be assessed by considering multiple parameters.
(§3) Microglial viability and phagocytosis studies: The pHrodo-myelin phagocytosis/cell viability assay, modified based on a published method, was run with immortalized BV2 (mouse microglia) and HMC3 (human microglia) cell lines in the Chu lab at IUSM. The 384-well plate high content analysis assay with BV2 and HMC3 microglial cell lines is used to quantify both phagocytosis and cell viability simultaneously. High content imaging is performed with the ArrayScan automatic imaging system and imaging analysis done with the software on the system. After allowing cells to adhere overnight, they are treated with compounds for total 48 hours including final 20 hours seeded with pHrodo-myelin (labeled phagocytosis ligand, purified […]
(§4) (approximately 22 hours after pHrodo-myelin addition). Three measurements are extracted from the assay: 1) phagocytosis signal by mean total phagocytosis spot intensity per cell, 2) total cell counts per well as the main measurement of cell viability, and 3) mean average nuclear intensity per cell as profiling of cell health since apoptotic cells showing nuclear intensity increase (early apoptosis) and decrease (later apoptosis), respectively. These measurements allow for evaluation of compound-induced phagocytosis (1) and cytotoxicity (2 and 3). Assays were carried out at a single concentration (10 μM). Idelalisib (10 μM) and cytochalasin-D (4 μM) were used as positive controls in the assay. All data, which was an average of 2 data points, was normalized to untreated wells and reported as % control, which is included in the Supporting Information both as a raw data file and summarized in the compound/gene-annotation file.

[2] = system: BV2 (mouse microglia) cell line; experiment: as above; conditions: BV2 cells, 10 uM compound, 48 hours treatment
Experimental: as §1, §2, §3, §4

## O=C(NC12C[C@H]3C[C@@H](C1)C[C@@H](C2)C3)N[C@H]1CC[C@H](Oc2ccc(C(=O)O)cc2)CC1 [UNC10303108A]
[1]
  1. Cell count (% control): 146.0 % control
  2. Nuclear Area (% Control): 101.3 % Control
  3. Nuclear DNA Intensity (% control): 97.2 % control
[2]
  1. Cell count (% control): 108.1 % control
  2. Nuclear Area (% Control): 106.8 % Control
  3. Nuclear DNA Intensity (% control): 104.7 % control
